# Assay results from PubChem BioAssay AID2685 (National Center for Advancing Translational Sciences (NCATS), 2010).
# This is one part of the list. Shown are side measurements of this screen, not its main read-out; they come without a call. Most of these compounds were active or inconclusive in the main read-out, so they are no random draw. The note in brackets gives the kind of curve behind each potency; many fits are weak.
# Test: qHTS Assay for Lipid Storage Modulators in Drosophila S3 Cells;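 as to cell number change: cells counted by Cell Tracker Red CMTPX staining in the red channel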
# Details: BODIPY lipid droplet fluorescence, 18-24 h; for cell number change: measured here: cell count max response, cells fed with added oleic acid
# Summary of the method: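 Laser-scanning cytometry quantifies lipid droplet accumulation (500–530 nm total intensity; droplet/cell object ratio) in oleic acid-fed (400 uM added) Drosophila S3 cells treated with a concentration series. 20 uM Triacsin C defined 100% inhibition.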
# [1] = measured here: lipid fluorescence (Fed channel) AC50, cells fed with added oleic acid
# [2] = measured here: cell number channel AC50, cells fed with added oleic acid
SMILES,cell number change [%],AC50 [1],AC50 [2]
O=C(c1ccco1)N1CCN(S(=O)(=O)c2ccccc2[N+](=O)[O-])CC1,33.9,"0.146 µM [rising, single point]",–
Cn1cccc1CC(=O)N/N=C/c1ccc(C(C)(C)C)cc1,-11.2,"29.1 µM [falling, single point]",–
COc1cccc(C(=O)NCCS(=O)(=O)NCc2ccc3c(c2)OCO3)c1,23.2,"20.6 µM [rising, partial curve]",–
O=c1oc2cc(O[C@@H]3OC[C@@H](O)[C@H](O)[C@H]3O)ccc2c2ccccc12,13,"0.103 µM [rising, full curve, poor fit]",–
O=C(CSc1nccn1Cc1ccc(F)cc1)Nc1ccc(F)cc1F,38.8,–,"23.1 µM [rising, single point]"
Cc1noc(C)c1C(=O)OCC(=O)Nc1ccccc1SCC#N,-0.903,–,"3.26 µM [rising, partial curve]"
O=C(CCCN1C(=O)C(c2ccccc2)Oc2cccnc21)NCc1ccccc1Cl (stereo not given),-40.7,"2.06 µM [falling, partial curve]","29.1 µM [falling, single point]"
N#Cc1ccc(NC(=O)c2sc3cc(C(F)(F)F)cnc3c2-c2cccs2)cc1,7.14,"29.1 µM [rising, single point]",–
Cc1ccc(C(=O)N2CCN(S(=O)(=O)c3ccc(C(C)C)cc3)CC2)s1,186,–,"18.4 µM [rising, single point]"
O=C(N/N=C/c1ccccc1)c1n[nH]c2c1CCCC2,42.7,"3.66 µM [rising, full curve]","1.84 µM [rising, full curve, poor fit]"
COc1ccc(C2C(C(=O)Nc3cccnc3)=C(C)Nc3nc(-c4cccs4)nn32)cc1OC (stereo not given),36.9,–,"8.2 µM [rising, partial curve, poor fit]"
O=S1(=O)N=C(SCCO)c2ccccc21,2.67,"0.00517 µM [falling, full curve, poor fit]",–
CCOC(=O)N/N=C\c1ccc([N+](=O)[O-])o1,-21.3,"13 µM [falling, partial curve, poor fit]",–
CCCOc1ccc(N2C(=O)C3C(C(C)C)NC4(C(=O)c5ccccc5C4=O)C3C2=O)cc1 (stereo not given),69.6,–,–
CCCC(C)NC(=O)COC(=O)c1ccc2c(c1)C(=O)N(Cc1ccco1)C2=O (stereo not given),2.56,"7.31 µM [falling, partial curve, poor fit]",–
CC1Cc2nc(SCC(=O)NCc3ccco3)n(-c3ccccc3)c(=O)c2S1 (stereo not given),2.03,–,–
O=C(O)c1ccc(NC(=S)NC2CCCCC2)cc1,17,"2.31 µM [rising, single point]",–
CCOc1ccc2[nH]c(=O)c(CN(Cc3cccnc3)C(=O)Nc3ccccc3OC)cc2c1,13.7,"0.411 µM [rising, full curve]",–
Cc1cc(C(=O)N2CCCc3ccccc32)no1,-9.96,"6.51 µM [falling, single point]","0.731 µM [falling, full curve]"
CC(C)C[C@H]1CN=C(Nc2ccccc2)N1CCC1CCCC1,14.7,"6.51 µM [rising, partial curve, poor fit]","0.082 µM [rising, full curve, poor fit]"

SMILES,cell number change [%],AC50 [1],AC50 [2]
CN(Cc1ccccc1)c1nc2c(c(=O)[nH]c(=O)n2C)n1Cc1ccccc1F,-29.4,"6.51 µM [rising, single point]",–
CN1C(=O)S/C(=C/c2cccn2-c2cccc(C(=O)O)c2)C1=O,40.3,–,–
Nc1nc(O)c(Sc2ccccc2[N+](=O)[O-])c(=O)[nH]1,36.2,–,"5.8 µM [rising, full curve, poor fit]"
N=c1c(S(=O)(=O)c2ccc(Cl)cc2)cc2c(=O)n3ccccc3nc2n1CC1CCCO1 (stereo not given),-9.2,–,"6.51 µM [falling, partial curve]"
Cc1ccc(C(=O)N/C(=C/c2ccc(-c3ccc(Br)cc3)o2)C(=O)NC2CCS(=O)(=O)C2)cc1 (stereo not given),-33.5,–,"5.17 µM [falling, single point]"
NC(=O)c1ccccc1OCC(=O)N1CCc2ccccc2C1,-21,–,–
CC(C)NC(=O)c1onc(CSc2ccc(F)cc2)c1C(=O)NC(C)C,23.6,"25.9 µM [rising, partial curve]",–
C=C(C)CSc1nc2ccccc2c(=O)n1-c1c(C)n(C)n(-c2ccccc2)c1=O,33.2,–,"16.4 µM [rising, single point]"
O=C(O)C1=CC[C@@H](c2ccc(Cl)cc2)N(S(=O)(=O)c2ccc(Cl)cc2)[C@H]1c1ccc(F)cc1,-37.5,–,–
COc1ccc(CCNC(=O)c2oc3ccccc3c2C)cc1,-16.3,–,–
Nc1cc(N)nc(SCC(=O)NCc2ccco2)n1,-21,–,–
Cc1ccc2oc(C(=O)NCC(c3ccco3)N(C)C)c(C)c2c1 (stereo not given),12.8,"6.51 µM [falling, single point]",–
Cc1ccc(C(=O)NCC(=O)NCCc2ccc(S(N)(=O)=O)cc2)s1,-21.7,"29.1 µM [falling, single point]",–
CC1(C)CN(c2ccc(F)cc2)C1=O,-34.9,–,"2.31 µM [falling, full curve, poor fit]"
CCOC(=O)C1CCN(C2=C(NS(=O)(=O)c3ccc(Cl)cc3)C(=O)c3ccccc3C2=O)CC1,-60.8,"8.2 µM [falling, partial curve]","16.4 µM [falling, partial curve, poor fit]"
O=C(c1c[nH]c(C(=O)C(Cl)(Cl)Cl)c1)c1ccc(F)cc1F,-65.2,"7.31 µM [falling, partial curve]","23.1 µM [falling, partial curve, poor fit]"
CNC(=O)[C@H]1O[C@@H](n2cnc3c(NCc4cccc(I)c4)nc(Cl)nc32)[C@H](O)[C@@H]1O,-28.7,"6.51 µM [rising, single point]",–
CCOC(=O)c1[nH]c(CSc2nnnn2-c2ccccc2C)c(C(=O)OCC)c1C,-10.6,"1.64 µM [rising, full curve]",–
CCC(C)(C)NC(=O)CN(C(=O)CNS(=O)(=O)c1ccccc1)c1ccccc1,8.62,"4.61 µM [falling, single point]",–
Cc1csc(Cn2c(CN(C)C)nc3ccccc3c2=O)n1,0.992,"6.51 µM [rising, single point]",–

# Ordered by formula weight (largest number first): 16 of the compounds above.
SMILES,cell number change [%],AC50 [1],AC50 [2]
CNC(=O)[C@H]1O[C@@H](n2cnc3c(NCc4cccc(I)c4)nc(Cl)nc32)[C@H](O)[C@@H]1O,-28.7,"6.51 µM [rising, single point]",–
O=C(O)C1=CC[C@@H](c2ccc(Cl)cc2)N(S(=O)(=O)c2ccc(Cl)cc2)[C@H]1c1ccc(F)cc1,-37.5,–,–
CCOC(=O)C1CCN(C2=C(NS(=O)(=O)c3ccc(Cl)cc3)C(=O)c3ccccc3C2=O)CC1,-60.8,"8.2 µM [falling, partial curve]","16.4 µM [falling, partial curve, poor fit]"
N=c1c(S(=O)(=O)c2ccc(Cl)cc2)cc2c(=O)n3ccccc3nc2n1CC1CCCO1 (stereo not given),-9.2,–,"6.51 µM [falling, partial curve]"
CCOC(=O)c1[nH]c(CSc2nnnn2-c2ccccc2C)c(C(=O)OCC)c1C,-10.6,"1.64 µM [rising, full curve]",–
C=C(C)CSc1nc2ccccc2c(=O)n1-c1c(C)n(C)n(-c2ccccc2)c1=O,33.2,–,"16.4 µM [rising, single point]"
CCC(C)(C)NC(=O)CN(C(=O)CNS(=O)(=O)c1ccccc1)c1ccccc1,8.62,"4.61 µM [falling, single point]",–
Cc1ccc(C(=O)NCC(=O)NCCc2ccc(S(N)(=O)=O)cc2)s1,-21.7,"29.1 µM [falling, single point]",–
CC(C)NC(=O)c1onc(CSc2ccc(F)cc2)c1C(=O)NC(C)C,23.6,"25.9 µM [rising, partial curve]",–
O=C(c1c[nH]c(C(=O)C(Cl)(Cl)Cl)c1)c1ccc(F)cc1F,-65.2,"7.31 µM [falling, partial curve]","23.1 µM [falling, partial curve, poor fit]"
CN1C(=O)S/C(=C/c2cccn2-c2cccc(C(=O)O)c2)C1=O,40.3,–,–
Cc1ccc2oc(C(=O)NCC(c3ccco3)N(C)C)c(C)c2c1 (stereo not given),12.8,"6.51 µM [falling, single point]",–
NC(=O)c1ccccc1OCC(=O)N1CCc2ccccc2C1,-21,–,–
COc1ccc(CCNC(=O)c2oc3ccccc3c2C)cc1,-16.3,–,–
Nc1nc(O)c(Sc2ccccc2[N+](=O)[O-])c(=O)[nH]1,36.2,–,"5.8 µM [rising, full curve, poor fit]"
Nc1cc(N)nc(SCC(=O)NCc2ccco2)n1,-21,–,–

# (listing goes on)

SMILES,cell number change [%],AC50 [1],AC50 [2]
CCNC(=O)CC1C(=O)N(c2ccc(F)cc2)C(=S)N1CCc1ccncc1 (stereo not given),28,–,–
CC1(C)CC(=O)c2c(oc3ccc(NS(=O)(=O)c4cccc5cccnc45)cc23)C1,-34.7,"29.1 µM [falling, single point]",–
Cc1nc(Nc2ccc(C(=O)O)cc2)nc(Nc2ccc(C(=O)O)cc2)c1[N+](=O)[O-],-12.7,"4.61 µM [falling, full curve, poor fit]",–
O=C(CCCN1C(=O)c2ccccc2C1=O)NC1CCCCCC1,43.7,–,"8.2 µM [rising, partial curve, poor fit]"
CC(=O)c1cccc(NC(=O)c2cc3nc(C)cc(C)n3n2)c1,-3.05,–,–
Cn1c(=O)oc2cc(NC(=O)CCl)ccc21,-8.36,"6.51 µM [falling, single point]",–
CC(OC(=O)Cc1c[nH]c2ccccc12)C(=O)NC1CCCCC1C (stereo not given),-2.51,"0.517 µM [falling, partial curve, poor fit]",–
O=C(Nc1ccc2nc3n(c(=O)c2c1)CCCC3)c1cc([N+](=O)[O-])ccc1F,-53.7,"8.2 µM [falling, partial curve]","20.6 µM [falling, partial curve]"
O=C(/C=C/c1ccco1)OCn1nnc2ccccc2c1=O,–,–,"0.0058 µM [falling, full curve, poor fit]"
O=C(CSCc1ccc(Cl)cc1)Nc1cc([N+](=O)[O-])ccc1O,-64.7,"29.1 µM [falling, single point]","16.4 µM [falling, partial curve]"
O=C(NCCC1CCCCN1S(=O)(=O)c1ccccc1)C(=O)NCc1ccccn1 (stereo not given),1.43,"0.103 µM [rising, full curve, poor fit]",–
C/C(=N\NC(=S)NC1CCCCC1)c1cccs1,17.3,"0.1 µM [rising, full curve, poor fit]",–
CC1CCN(C(=O)C(Cc2ccccc2)NS(=O)(=O)c2ccc3c(c2)oc(=O)n3C)CC1 (stereo not given),–,"0.103 µM [rising, full curve, poor fit]",–
CC1(C)Cc2c(ccc3ccccc23)C(c2cc3ccccc3oc2=O)=N1,12.9,"1.84 µM [rising, full curve, poor fit]","0.92 µM [rising, full curve, poor fit]"
CC1(c2ccccc2)CC(c2ccccc2)=Nc2nonc2N1 (stereo not given),-1.04,"0.731 µM [rising, full curve, poor fit]",–
Cc1ccc(N/N=C/c2ccncc2)cc1,4.5,"7.31 µM [rising, partial curve]",–
CC(C)c1ccc2[nH]c(O)c(N=NC(=S)NCCc3ccccc3)c2c1,-41.1,"20.6 µM [falling, single point]","18.4 µM [falling, single point]"
CC(=O)Nc1ccc(S(=O)(=O)N(Cc2ccccc2)c2ccccc2)cc1,-6.46,–,"0.00517 µM [falling, full curve, poor fit]"
